Laboratory results taken from PMC8405615.
No constants are given. Whether binding was seen depends on the method and setting. In cells and extracts the contact can be indirect. For some of these results: A result given as binding can be weak or reduced; the word gives no strength. Tags and fused reporters may be left off the sequences shown. Each block holds one molecule with its values, some of them ahead of it.

Columns and labels:
[1] = target: T1, MYC-CHFR, full-length checkpoint with forkhead and ring finger domains (human) (UniProt Q96EP1); experiment: co-IP; ZEB1 truncates transfected with wild-type CHFR into HEK293T cells (Fig. S2a); which partner was precipitated is not told
T1 sequence: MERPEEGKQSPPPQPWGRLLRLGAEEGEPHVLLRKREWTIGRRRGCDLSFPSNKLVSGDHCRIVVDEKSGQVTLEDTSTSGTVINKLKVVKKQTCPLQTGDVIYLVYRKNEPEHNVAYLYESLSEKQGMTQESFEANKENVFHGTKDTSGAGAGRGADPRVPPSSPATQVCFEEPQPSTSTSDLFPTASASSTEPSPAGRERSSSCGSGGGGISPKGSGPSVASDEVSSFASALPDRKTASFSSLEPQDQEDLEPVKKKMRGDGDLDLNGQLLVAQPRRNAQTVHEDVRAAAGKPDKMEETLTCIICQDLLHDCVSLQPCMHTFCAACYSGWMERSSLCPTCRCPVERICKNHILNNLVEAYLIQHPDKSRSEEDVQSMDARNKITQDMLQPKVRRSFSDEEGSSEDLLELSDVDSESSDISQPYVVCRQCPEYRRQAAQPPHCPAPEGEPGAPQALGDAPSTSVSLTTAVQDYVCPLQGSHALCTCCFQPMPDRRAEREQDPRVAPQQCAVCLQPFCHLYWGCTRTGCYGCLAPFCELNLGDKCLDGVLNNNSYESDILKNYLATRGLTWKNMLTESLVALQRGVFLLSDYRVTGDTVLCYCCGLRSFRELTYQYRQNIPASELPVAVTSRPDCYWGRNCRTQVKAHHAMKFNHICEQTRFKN

[2] = target: MYC-CHFR∆CRD (human) (UniProt Q96EP1); experiment: co-IP; HEK293T co-transfected; lysis in NETN buffer (100 mM NaCl, 1 mM EDTA, 20 mM Tris-HCl pH 8.0, 0.5% Nonidet P-40); MYC-tagged protein precipitated on anti-Myc magnetic beads, 4 °C, 2 h; immunoblot
[3] = target: MYC-CHFR∆FHA (human) (UniProt Q96EP1); experiment: as above
[4] = target: MYC-CHFR∆RING (human) (UniProt Q96EP1); experiment: as above

- binding [1]: binds
Molecule: ZEB1 N-terminal zinc finger domain (NZF) (domain or fragment)

- binding [2]: no binding
- binding [3]: no binding
- binding [4]: binds
B1: SFB-ZEB1, triple-epitope (S-protein, FLAG tag, and streptavidin-binding peptide)-tagged zinc finger E-box-binding homeobox 1 (protein, UniProt P37275 1-1124)
chain: MADGPRCKRRKQANPRRNNVTNYNTVVETNSDSDDEDKLHIVEEESVTDAADCEGVPEDDLPTDQTVLPGRSSEREGNAKNCWEDDRKEGQEILGPEAQADEAGCTVKDDECESDAENEQNHDPNVEEFLQQQDTAVIFPEAPEEDQRQGTPEASGHDENGTPDAFSQLLTCPYCDRGYKRFTSLKEHIKYRHEKNEDNFSCSLCSYTFAYRTQLERHMTSHKSGRDQRHVTQSGCNRKFKCTECGKAFKYKHHLKEHLRIHSGEKPYECPNCKKRFSHSGSYSSHISSKKCISLIPVNGRPRTGLKTSQCSSPSLSASPGSPTRPQIRQKIENKPLQEQLSVNQIKTEPVDYEFKPIVVASGINCSTPLQNGVFTGGGPLQATSSPQGMVQAVVLPTVGLVSPISINLSDIQNVLKVAVDGNVIRQVLENNQANLASKEQETINASPIQQGGHSVISAISLPLVDQDGTTKIIINYSLEQPSQLQVVPQNLKKENPVATNSCKSEKLPEDLTVKSEKDKSFEGGVNDSTCLLCDDCPGDINALPELKHYDLKQPTQPPPLPAAEAEKPESSVSSATGDGNLSPSQPPLKNLLSLLKAYYALNAQPSAEELSKIADSVNLPLDVVKKWFEKMQAGQISVQSSEPSSPEPGKVNIPAKNNDQPQSANANEPQDSTVNLQSPLKMTNSPVLPVGSTTNGSRSSTPSPSPLNLSSSRNTQGYLYTAEGAQEEPQVEPLDLSLPKQQGELLERSTITSVYQNSVYSVQEEPLNLSCAKKEPQKDSCVTDSEPVVNVIPPSANPINIAIPTVTAQLPTIVAIADQNSVPCLRALAANKQTILIPQVAYTYSTTVSPAVQEPPLKVIQPNGNQDERQDTSSEGVSNVEDQNDSDSTPPKKKMRKTENGMYACDLCDKIFQKSSSLLRHKYEHTGKRPHECGICKKAFKHKHHLIEHMRLHSGEKPYQCDKCGKRFSHSGSYSQHMNHRYSYCKREAEERDSTEQEEAGPEILSNEHVGARASPSQGDSDERESLTREEDEDSEKEEEEEDKEMEELQEEKECEKPQGDEEEEEEEEEVEEEEVEEAENEGEEAKTEGLMKDDRAESQASSLGQKVGESSEQVSEEKTNEA
